Values from PubChem BioAssay AID1224830 (NIAID, 2016)
In all, the deposit lists about 18,000 reagents; this is a part drawn at random. About 2,900 of them (16%) count as active. 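Calls are made per well; low scores hint the gene aids the LPS response, high scores that it dampens it.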 A number with no mark means an inactive call. Repeated entries: four replicate wells of each siRNA pool. No sequences are given here.

- Test: 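Genes whose knock-down alters the TNF-alpha reporter response to LPS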 (primary screen)
- Cells: human THP-1 monocytic leukaemia cells, TNF dual-luciferase reporter clone, PMA-differentiated to macrophage-like cells
- Knock-down reagent: siRNA pool against human genes, 50 nM
- Timing: LPS for 4 h, given about 3 days after siRNA transfection
- Challenge: bacterial LPS (TLR4 ligand), 10 ng/ml
- Detection: 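Ratio of firefly to renilla light, scaled to the plate median and expressed as a robust z-score per replicate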
- Direction: TNF reporter robust z-score: higher = stronger TNF reporter response to LPS
- Rule for the call: 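Each well counts as active if its z-score is over 2.8 or under -1.5; controls are left without a call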

Target gene | TNF reporter robust z-score
NIT2 (nitrilase family member 2) | 1.43
NIT2 (nitrilase family member 2) | 0.77
NIT2 (nitrilase family member 2) | 1.02
NIT2 (nitrilase family member 2) | -0.1
CARD19 (caspase recruitment domain family member 19) | 2.8 (active)
CARD19 (caspase recruitment domain family member 19) | 2.4
CARD19 (caspase recruitment domain family member 19) | 10.3 (active)
CARD19 (caspase recruitment domain family member 19) | 2.37
TRIL (TLR4 interactor with leucine rich repeats) | -0.84
TRIL (TLR4 interactor with leucine rich repeats) | 1.24
TRIL (TLR4 interactor with leucine rich repeats) | 1.29
TRIL (TLR4 interactor with leucine rich repeats) | 0.27
HSPH1 (heat shock protein family H (Hsp110) member 1) | -2.1 (active)
HSPH1 (heat shock protein family H (Hsp110) member 1) | -1.68 (active)
HSPH1 (heat shock protein family H (Hsp110) member 1) | -1.39
HSPH1 (heat shock protein family H (Hsp110) member 1) | -1.83 (active)
RNF122 (ring finger protein 122) | 0.87
RNF122 (ring finger protein 122) | -1.22
RNF122 (ring finger protein 122) | -1.53 (active)
RNF122 (ring finger protein 122) | -0.06
EMSY (EMSY transcriptional repressor, BRCA2 interacting) | 0.53
EMSY (EMSY transcriptional repressor, BRCA2 interacting) | -0.2
EMSY (EMSY transcriptional repressor, BRCA2 interacting) | 0
EMSY (EMSY transcriptional repressor, BRCA2 interacting) | 1.05
SRP14 (signal recognition particle 14) | 0.31
SRP14 (signal recognition particle 14) | 0.8
SRP14 (signal recognition particle 14) | 0.34
SRP14 (signal recognition particle 14) | 2.21
PCNA (proliferating cell nuclear antigen) | -1.26
PCNA (proliferating cell nuclear antigen) | -1.05
PCNA (proliferating cell nuclear antigen) | -1.1
PCNA (proliferating cell nuclear antigen) | -1.4

Next part, starting with the last 2 of the part before.
Target gene | TNF reporter robust z-score
PCNA (proliferating cell nuclear antigen) | -1.1
PCNA (proliferating cell nuclear antigen) | -1.4
KRT36 (keratin 36) | -0.45
KRT36 (keratin 36) | 0.49
KRT36 (keratin 36) | 0.46
KRT36 (keratin 36) | 0.83
EPS15L1 (epidermal growth factor receptor pathway substrate 15 like 1) | 0.12
EPS15L1 (epidermal growth factor receptor pathway substrate 15 like 1) | 0.56
EPS15L1 (epidermal growth factor receptor pathway substrate 15 like 1) | 0.13
EPS15L1 (epidermal growth factor receptor pathway substrate 15 like 1) | 1.45
AJUBA (ajuba LIM protein) | 0.46
AJUBA (ajuba LIM protein) | -0.01
AJUBA (ajuba LIM protein) | 0.23
AJUBA (ajuba LIM protein) | 3.91 (active)
ZNF230 (zinc finger protein 230) | -0.93
ZNF230 (zinc finger protein 230) | -0.56
ZNF230 (zinc finger protein 230) | -0.38
ZNF230 (zinc finger protein 230) | -0.63
